# Results as given in the supplement of paper PMC8728848.
# This is one part of the list.
# B1: AT5G24760(45) (Arabidopsis thaliana), Q8LEB2 (protein)
# chain: MSASSSSFEQPQVITCNAAVAWRAGEPLVMEEVEVSPPQPLEIRIKVVCTSLCRSDLSAWESQSLLPRIFGHEAAGIVESIGEGVTEFEKGDHVLAVFTGECGSCRHCISGKSNMCQVLGMERKGLMHSDQKTRFSIKGKPVYHYCAVSSFSEYTVVHSGCAVKVDPLAPLHKICLLSCGVAAGLGAAWNVADVQKGSSVVIFGLGTVGLSVAQGAKLRGAAQILGVDINPAKAEQAKTFGVTDFINSNDLSEPIPQVIKRMTGGGADFSFECVGDTGIATTALQSCSDGWGMTVTLGVPKAKPEVSAHYGLFLSGKSLKGTLFGGWKPKSDLPSLIDKYMNKEIMIDEFITHNLSFDEINKAFVLMREGKCLRCVLHMPK
# Tests used:
# Assay in all cases: glycan array binding signal (z-score within array); higher = stronger binding
# Conditions in all cases: glycan notation: IUPAC condensed, linker removed
# [1] = target: Neu5Ac(a2-3)Gal(b1-3)]Neu5Ac(a2-3)Gal(b1-4)]GlcNAc
# Method in brief: (§1)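 Arrays were curated from the Consortium for Functional Glycomics database, 3228 in total, and kept only where the protein sequence was available. Binding is expressed as a within-array Z-score. This score was averaged across arrays of the same protein sequence at different concentrations or buffers and across linkers, and negative values can be read as non-binding.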
# Neu5Ac(a2-3)Gal(b1-4)Glc = target: Neu5Ac(a2-3)Gal(b1-4)Glc
# Method in brief: as §1
# [2] = target: Neu5Ac(a2-3)Gal(b1-4)GlcNAc
# Method in brief: as §1
# [3] = target: Neu5Ac(a2-3)Gal(b1-4)GlcNAc(b1-2)Man
# Method in brief: as §1
# [4] = target: Neu5Ac(a2-3)Gal(b1-4)GlcNAc(b1-2)Man(a1-3)[GlcNAc(b1-4)][Neu5Ac(a2-3)Gal(b1-4)GlcNAc(b1-2)Man(a1-6)]Man(b1-4)GlcNAc(b1-4)GlcNAc
# Method in brief: as §1
# [5] = target: Neu5Ac(a2-3)Gal(b1-4)GlcNAc(b1-2)Man(a1-3)[Neu5Ac(a2-3)Gal(b1-4)GlcNAc(b1-2)Man(a1-6)]Man(b1-4)GlcNAc(b1-4)GlcNAc
# Method in brief: as §1
# [6] = target: Neu5Ac(a2-3)Gal(b1-4)GlcNAc(b1-2)Man(a1-3)[Neu5Ac(a2-3)Gal(b1-4)GlcNAc(b1-2)Man(a1-6)]Man(b1-4)GlcNAc(b1-4)[Fuc(a1-6)]GlcNAc
# Method in brief: as §1
# [7] = target: Neu5Ac(a2-3)Gal(b1-4)GlcNAc(b1-2)Man(a1-3)[Neu5Ac(a2-6)Gal(b1-4)GlcNAc(b1-2)Man(a1-6)]Man(b1-4)GlcNAc(b1-4)GlcNAc
# Method in brief: as §1
# [8] = target: Neu5Ac(a2-3)Gal(b1-4)GlcNAc(b1-2)[Neu5Ac(a2-3)Gal(b1-4)GlcNAc(b1-4)]Man(a1-3)[GlcNAc(b1-4)][Neu5Ac(a2-3)Gal(b1-4)GlcNAc(b1-2)[Neu5Ac(a2-3)Gal(b1-4)GlcNAc(b1-6)]Man(a1-6)]Man(b1-4)GlcNAc(b1-4)GlcNAc
# Method in brief: as §1
# [9] = target: Neu5Ac(a2-3)Gal(b1-4)GlcNAc(b1-2)[Neu5Ac(a2-3)Gal(b1-4)GlcNAc(b1-4)]Man(a1-3)[GlcNAc(b1-4)][Neu5Ac(a2-3)Gal(b1-4)GlcNAc(b1-4)Man(a1-6)]Man(b1-4)GlcNAc(b1-4)GlcNAc
# Method in brief: as §1
# [10] = target: Neu5Ac(a2-3)Gal(b1-4)GlcNAc(b1-2)[Neu5Ac(a2-3)Gal(b1-4)GlcNAc(b1-6)]Man(a1-6)[Neu5Ac(a2-3)Gal(b1-4)GlcNAc(b1-2)Man(a1-3)]Man(b1-4)GlcNAc(b1-4)GlcNAc
# Method in brief: as §1
# [11] = target: Neu5Ac(a2-3)Gal(b1-4)GlcNAc(b1-2)[Neu5Ac(a2-3)Gal(b1-4)GlcNAc(b1-6)]Man(a1-6)[Neu5Ac(a2-3)Gal(b1-4)GlcNAc(b1-2)Man(a1-3)][GlcNAc(b1-4)]Man(b1-4)GlcNAc(b1-4)GlcNAc
# Method in brief: as §1
# [12] = target: Neu5Ac(a2-3)Gal(b1-4)GlcNAc(b1-3)Gal
# Method in brief: as §1
# [13] = target: Neu5Ac(a2-3)Gal(b1-4)GlcNAc(b1-3)Gal(b1-3)GlcNAc
# Method in brief: as §1
# [14] = target: Neu5Ac(a2-3)Gal(b1-4)GlcNAc(b1-3)Gal(b1-4)GlcNAc
# Method in brief: as §1
# [15] = target: Neu5Ac(a2-3)Gal(b1-4)GlcNAc(b1-3)Gal(b1-4)GlcNAc(b1-2)Man(a1-3)[Neu5Ac(a2-3)Gal(b1-4)GlcNAc(b1-3)Gal(b1-4)GlcNAc(b1-2)Man(a1-6)]Man(b1-4)GlcNAc(b1-4)GlcNAc
# Method in brief: as §1
# [16] = target: Neu5Ac(a2-3)Gal(b1-4)GlcNAc(b1-3)Gal(b1-4)GlcNAc(b1-3)Gal(b1-4)GlcNAc
# Method in brief: as §1
# [17] = target: Neu5Ac(a2-3)Gal(b1-4)GlcNAc(b1-3)Gal(b1-4)GlcNAc(b1-3)Gal(b1-4)GlcNAc(b1-2)Man(a1-3)[Neu5Ac(a2-3)Gal(b1-4)GlcNAc(b1-3)Gal(b1-4)GlcNAc(b1-3)Gal(b1-4)GlcNAc(b1-2)Man(a1-6)]GalNAc
# Method in brief: as §1
# [18] = target: Neu5Ac(a2-3)Gal(b1-4)GlcNAc(b1-3)Gal(b1-4)GlcNAc(b1-3)GalNAc
# Method in brief: as §1
# [19] = target: Neu5Ac(a2-3)Gal(b1-4)GlcNAc(b1-3)Gal(b1-4)GlcNAc(b1-3)[Neu5Ac(a2-3)Gal(b1-4)GlcNAc(b1-3)Gal(b1-4)GlcNAc(b1-6)]GalNAc
# Method in brief: as §1
# [20] = target: Neu5Ac(a2-3)Gal(b1-4)GlcNAc(b1-3)Gal(b1-4)GlcNAc(b1-6)[Gal(b1-3)]GalNAc
# Method in brief: as §1
# [21] = target: Neu5Ac(a2-3)Gal(b1-4)GlcNAc(b1-3)Gal(b1-4)[Fuc(a1-3)]GlcNAc
# Method in brief: as §1
# [22] = target: Neu5Ac(a2-3)Gal(b1-4)GlcNAc(b1-3)GalNAc
# Method in brief: as §1
# [23] = target: Neu5Ac(a2-3)Gal(b1-4)GlcNAc(b1-3)[Neu5Ac(a2-3)Gal(b1-4)GlcNAc(b1-6)]GalNAc
# Method in brief: as §1
# [24] = target: Neu5Ac(a2-3)Gal(b1-4)GlcNAc(b1-6)GalNAc
# Method in brief: as §1
# [25] = target: Neu5Ac(a2-3)Gal(b1-4)GlcNAc(b1-6)[Gal(b1-3)]GalNAc
# Method in brief: as §1
# [26] = target: Neu5Ac(a2-3)Gal(b1-4)GlcNAc(b1-6)[Neu5Ac(a2-3)Gal(b1-3)]GalNAc
# Method in brief: as §1
# [27] = target: Neu5Ac(a2-3)Gal(b1-4)GlcNAc6S
# Method in brief: as §1
# [28] = target: Neu5Ac(a2-3)Gal(b1-4)[Fuc(a1-3)]GlcNAc
# Method in brief: as §1
# [29] = target: Neu5Ac(a2-3)Gal(b1-4)[Fuc(a1-3)]GlcNAc(b1-2)Man
# Method in brief: as §1
# [30] = target: Neu5Ac(a2-3)Gal(b1-4)[Fuc(a1-3)]GlcNAc(b1-3)Gal
# Method in brief: as §1
# [31] = target: Neu5Ac(a2-3)Gal(b1-4)[Fuc(a1-3)]GlcNAc(b1-3)Gal(b1-4)GlcNAc
# Method in brief: as §1
# [32] = target: Neu5Ac(a2-3)Gal(b1-4)[Fuc(a1-3)]GlcNAc(b1-3)Gal(b1-4)[Fuc(a1-3)]GlcNAc(b1-3)Gal(b1-4)[Fuc(a1-3)]GlcNAc
# Method in brief: as §1
# [33] = target: Neu5Ac(a2-3)Gal(b1-4)[Fuc(a1-3)]GlcNAc(b1-3)GalNAc
# Method in brief: as §1
# [34] = target: Neu5Ac(a2-3)Gal(b1-4)[Fuc(a1-3)]GlcNAc(b1-6)[Gal(b1-3)]GalNAc
# Method in brief: as §1
# [35] = target: Neu5Ac(a2-3)Gal(b1-4)[Fuc(a1-3)]GlcNAc(b1-6)[Neu5Ac(a2-3)Gal(b1-3)]GalNAc
# Method in brief: as §1
# [36] = target: Neu5Ac(a2-3)Gal(b1-4)[Fuc(a1-3)]GlcNAc6S
# Method in brief: as §1
# [37] = target: Neu5Ac(a2-3)Gal6S(b1-4)GlcNAc
# Method in brief: as §1
binder,measurement,setting,value
B1,glycan array binding signal (z-score),[1],-0.892
same,glycan array binding signal (z-score),Neu5Ac(a2-3)Gal(b1-4)Glc,-0.264
same,glycan array binding signal (z-score),[2],-0.409
same,glycan array binding signal (z-score),[3],-0.578
same,glycan array binding signal (z-score),[4],-0.597
same,glycan array binding signal (z-score),[5],-1.3
same,glycan array binding signal (z-score),[6],-0.717
same,glycan array binding signal (z-score),[7],-1.3
same,glycan array binding signal (z-score),[8],-0.97
same,glycan array binding signal (z-score),[9],-0.784
same,glycan array binding signal (z-score),[10],-0.601
same,glycan array binding signal (z-score),[11],-1.12
same,glycan array binding signal (z-score),[12],-0.951
same,glycan array binding signal (z-score),[13],-0.66
same,glycan array binding signal (z-score),[14],-0.818
same,glycan array binding signal (z-score),[15],-0.337
same,glycan array binding signal (z-score),[16],-0.884
same,glycan array binding signal (z-score),[17],0.612
same,glycan array binding signal (z-score),[18],-1.13
same,glycan array binding signal (z-score),[19],-0.691
same,glycan array binding signal (z-score),[20],-0.304
same,glycan array binding signal (z-score),[21],-0.927
same,glycan array binding signal (z-score),[22],-0.675
same,glycan array binding signal (z-score),[23],-1.2
same,glycan array binding signal (z-score),[24],-0.781
same,glycan array binding signal (z-score),[25],-0.861
same,glycan array binding signal (z-score),[26],-0.686
same,glycan array binding signal (z-score),[27],-0.72
same,glycan array binding signal (z-score),[28],-0.565
same,glycan array binding signal (z-score),[29],-0.148
same,glycan array binding signal (z-score),[30],-0.085
same,glycan array binding signal (z-score),[31],0.773
same,glycan array binding signal (z-score),[32],-0.878
same,glycan array binding signal (z-score),[33],3.17
same,glycan array binding signal (z-score),[34],0.591
same,glycan array binding signal (z-score),[35],2.76
same,glycan array binding signal (z-score),[36],-0.909
same,glycan array binding signal (z-score),[37],0.378

# Reformatted: results already given
binder | measurement | setting | value
B1 | glycan array binding signal (z-score) | Neu5Ac(a2-3)Gal(b1-4)Glc | -0.264
same | glycan array binding signal (z-score) | [30] | -0.085
